Measured values published in article doi:10.1101/258285.
Read-outs that look alike come from different tables or passages of the source. Results are given in words; binding and its absence hold for the method and conditions named. In cells and extracts the contact can be indirect. Some binding calls cover weakened binding; strength is not graded here. For part of these data: Where a sequence is shown, tags or fusion partners need not be part of it.

The chains behind the UniProt entries cited, without tags or fusion partners. Where a name states a change or a piece, a line headed by the entry shows the natural chain unless it says otherwise.
UniProt P09429: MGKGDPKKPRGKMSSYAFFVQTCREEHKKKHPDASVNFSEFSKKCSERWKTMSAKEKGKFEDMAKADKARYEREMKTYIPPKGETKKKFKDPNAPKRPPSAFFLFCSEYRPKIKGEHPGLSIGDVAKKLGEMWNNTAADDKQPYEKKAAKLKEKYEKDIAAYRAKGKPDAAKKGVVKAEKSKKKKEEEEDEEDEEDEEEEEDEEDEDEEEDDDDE
UniProt O14980: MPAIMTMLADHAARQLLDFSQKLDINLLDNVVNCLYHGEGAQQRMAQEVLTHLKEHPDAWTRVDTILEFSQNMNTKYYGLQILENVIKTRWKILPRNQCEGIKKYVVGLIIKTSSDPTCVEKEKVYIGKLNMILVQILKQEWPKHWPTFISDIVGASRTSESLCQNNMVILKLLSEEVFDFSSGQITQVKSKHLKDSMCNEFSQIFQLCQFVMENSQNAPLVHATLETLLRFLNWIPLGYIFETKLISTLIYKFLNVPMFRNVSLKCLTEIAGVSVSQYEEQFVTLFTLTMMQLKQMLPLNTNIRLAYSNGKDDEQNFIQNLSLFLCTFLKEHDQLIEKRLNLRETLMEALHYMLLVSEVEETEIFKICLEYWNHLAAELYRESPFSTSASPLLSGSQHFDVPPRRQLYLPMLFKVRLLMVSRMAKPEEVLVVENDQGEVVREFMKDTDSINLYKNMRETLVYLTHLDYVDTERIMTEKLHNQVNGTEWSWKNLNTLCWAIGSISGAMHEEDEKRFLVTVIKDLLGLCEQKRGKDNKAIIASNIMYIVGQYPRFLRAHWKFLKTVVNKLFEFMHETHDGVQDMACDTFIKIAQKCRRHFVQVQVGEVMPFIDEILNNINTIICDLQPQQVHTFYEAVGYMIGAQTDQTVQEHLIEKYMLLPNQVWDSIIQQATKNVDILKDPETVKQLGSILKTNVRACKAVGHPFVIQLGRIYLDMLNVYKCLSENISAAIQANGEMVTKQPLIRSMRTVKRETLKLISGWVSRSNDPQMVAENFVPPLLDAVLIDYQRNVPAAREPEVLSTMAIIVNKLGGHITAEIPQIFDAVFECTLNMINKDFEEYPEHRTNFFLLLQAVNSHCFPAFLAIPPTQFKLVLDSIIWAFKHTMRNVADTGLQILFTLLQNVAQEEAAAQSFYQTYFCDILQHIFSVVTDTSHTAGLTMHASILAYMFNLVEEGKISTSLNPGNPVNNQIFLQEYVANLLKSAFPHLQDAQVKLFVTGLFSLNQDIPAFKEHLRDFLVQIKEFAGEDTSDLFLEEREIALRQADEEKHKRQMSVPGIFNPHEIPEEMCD
UniProt P63158: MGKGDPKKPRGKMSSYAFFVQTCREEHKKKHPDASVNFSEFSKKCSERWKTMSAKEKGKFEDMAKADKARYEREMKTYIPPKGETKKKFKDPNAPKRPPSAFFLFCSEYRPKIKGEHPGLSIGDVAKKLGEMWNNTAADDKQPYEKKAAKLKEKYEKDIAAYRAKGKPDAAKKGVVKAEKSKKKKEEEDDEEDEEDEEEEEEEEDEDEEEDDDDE

Legend:
[1] = biological target: Myc epitope–tagged human HMGB1(WT) (human) (UniProt P09429); experiment: co-IP
[2] = biological target: Myc epitope–tagged human HMGB1(C23S) (human) (UniProt P09429); experiment: co-IP
[3] = biological target: Myc epitope–tagged human HMGB1(C45S) (human) (UniProt P09429); experiment: co-IP
[4] = biological target: T1, Myc- and His6-tagged human PrxI (human) (UniProt Q06830); experiment: co-IP
T1 sequence: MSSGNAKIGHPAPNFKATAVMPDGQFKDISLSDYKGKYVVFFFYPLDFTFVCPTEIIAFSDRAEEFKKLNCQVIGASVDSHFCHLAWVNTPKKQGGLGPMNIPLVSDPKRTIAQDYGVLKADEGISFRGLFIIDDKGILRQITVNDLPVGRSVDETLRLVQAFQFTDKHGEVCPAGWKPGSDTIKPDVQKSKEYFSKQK

[5] = biological target: T2, Myc- and His6-tagged human PrxII (human) (UniProt P32119); experiment: co-IP
T2 sequence: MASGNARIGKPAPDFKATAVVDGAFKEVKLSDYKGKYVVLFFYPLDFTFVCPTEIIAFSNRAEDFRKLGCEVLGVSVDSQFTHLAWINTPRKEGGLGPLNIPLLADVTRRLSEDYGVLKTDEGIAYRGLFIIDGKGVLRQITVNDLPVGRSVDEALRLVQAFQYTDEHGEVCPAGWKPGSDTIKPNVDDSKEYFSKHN

[6] = biological target: T3, endogenous PrxII of HEK293T cells (human (endogenous in HEK293T)) (UniProt P32119); experiment: proximity ligation
T3 sequence: T2 sequence

[7] = biological target: T1, Myc- and His6-tagged human PrxI (human); experiment: co-IP; remark: listed apart in the source
[8] = biological target: T2, Myc- and His6-tagged human PrxII (human); experiment: co-IP; remark: listed apart in the source
[9] = biological target: Myc epitope–tagged human HMGB1(WT) (human) (UniProt P09429); experiment: proximity ligation
[10] = biological target: Myc epitope–tagged human HMGB1(C23S) (human) (UniProt P09429); experiment: proximity ligation
[11] = biological target: Myc epitope–tagged human HMGB1(C45S) (human) (UniProt P09429); experiment: proximity ligation
[12] = biological target: T4, endogenous mouse PrxII (mouse (endogenous in MEFs and BMDMs)) (UniProt Q61171); experiment: proximity ligation
T4 sequence: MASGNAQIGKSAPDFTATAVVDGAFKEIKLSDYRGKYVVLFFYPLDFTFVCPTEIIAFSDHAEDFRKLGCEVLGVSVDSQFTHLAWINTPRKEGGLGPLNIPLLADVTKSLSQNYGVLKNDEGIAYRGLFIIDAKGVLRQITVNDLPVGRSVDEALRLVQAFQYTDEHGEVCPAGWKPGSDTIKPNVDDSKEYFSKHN

Measured: binding

CRM1 (chromosome region maintenance protein 1), transfected (from UniProt O14980 1-1071)
binds: [1] | [2] | [3]

Myc epitope–tagged human HMGB1(C23S) (from UniProt P09429 1-215)
binds: [4] | [5] | [6] | [7] | [8]

endogenous CRM1 of HEK293T cells (from UniProt O14980 1-1071)
binds: [9] | [10] | [11]

Myc epitope–tagged human HMGB1(C45S) (from UniProt P09429 1-215)
binds: [4] | [5] | [6] | [7] | [8]

Myc epitope–tagged human HMGB1(WT) (from UniProt P09429 1-215)
binds: [6]

endogenous HMGB1 of MEFs (from UniProt P63158 1-215)
binds: [12]
